The record followed here is US20220403021A1.

Protein sequences, listed by entry. Tags and fused reporters are not part of them. Lines headed by an entry give the natural chain unless they say otherwise; changes in a name come on top. Chains listed by the source or under a name are the forms on record and can include a tag or linker.
recombinant 8×His-tagged full-length (FL, aa 1-383) wild-type human Tau (0N4R isoform) (P10636, form named): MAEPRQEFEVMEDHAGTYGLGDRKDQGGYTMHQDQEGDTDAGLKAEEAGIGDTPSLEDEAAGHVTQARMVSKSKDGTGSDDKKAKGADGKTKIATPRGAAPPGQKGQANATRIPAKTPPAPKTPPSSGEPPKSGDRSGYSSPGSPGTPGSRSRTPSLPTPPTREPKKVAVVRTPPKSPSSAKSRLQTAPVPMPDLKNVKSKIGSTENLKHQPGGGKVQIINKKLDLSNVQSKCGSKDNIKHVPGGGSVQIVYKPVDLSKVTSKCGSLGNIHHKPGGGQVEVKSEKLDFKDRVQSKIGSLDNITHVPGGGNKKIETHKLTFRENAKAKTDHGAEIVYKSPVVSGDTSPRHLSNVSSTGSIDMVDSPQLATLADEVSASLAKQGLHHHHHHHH

No constants are given. Whether binding was seen depends on the method and setting. Binding seen in cells or lysates may run through a third protein. Some binding calls cover weakened binding; strength is not graded here.

The assay addresses T1, Synaptogyrin-3 (mouse) (mouse) (UniProt Q8R191).
T1 sequence (looked up): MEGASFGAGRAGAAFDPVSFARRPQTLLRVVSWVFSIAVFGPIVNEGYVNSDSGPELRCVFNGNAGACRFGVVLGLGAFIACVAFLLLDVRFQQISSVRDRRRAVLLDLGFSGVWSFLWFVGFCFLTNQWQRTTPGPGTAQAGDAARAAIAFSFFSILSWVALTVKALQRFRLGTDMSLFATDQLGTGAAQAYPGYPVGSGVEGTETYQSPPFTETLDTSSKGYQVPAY
As to the kind of experiment: co-IP of mouse SV lysate with recombinant Tau as bait, LC-MS/MS.

Turning to “recombinant 8×His-tagged full-length (FL, aa 1-383) wild-type human Tau (0N4R isoform) (from UniProt P10636 1-383)”, the binding result was “binds”.
